Laboratory results: article PMC12563662
These are yes or no findings as the source states them, for the method shown. Binding seen in cells or lysates may run through a third protein. Some entries that bind do so weakly or less than the wild type.

Amino acid sequences for entries named in this document (tags omitted).
UniProt Q7Z698: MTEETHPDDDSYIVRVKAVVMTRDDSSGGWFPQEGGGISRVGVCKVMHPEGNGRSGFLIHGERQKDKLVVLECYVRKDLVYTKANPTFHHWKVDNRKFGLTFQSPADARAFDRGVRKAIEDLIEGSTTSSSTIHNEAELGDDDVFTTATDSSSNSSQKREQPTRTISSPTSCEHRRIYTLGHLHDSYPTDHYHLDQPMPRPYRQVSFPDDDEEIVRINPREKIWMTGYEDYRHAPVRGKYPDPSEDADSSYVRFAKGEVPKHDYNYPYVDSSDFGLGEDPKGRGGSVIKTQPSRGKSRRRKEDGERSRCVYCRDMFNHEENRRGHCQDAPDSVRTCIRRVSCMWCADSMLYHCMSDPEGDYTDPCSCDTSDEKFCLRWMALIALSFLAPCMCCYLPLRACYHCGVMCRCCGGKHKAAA
UniProt P21359: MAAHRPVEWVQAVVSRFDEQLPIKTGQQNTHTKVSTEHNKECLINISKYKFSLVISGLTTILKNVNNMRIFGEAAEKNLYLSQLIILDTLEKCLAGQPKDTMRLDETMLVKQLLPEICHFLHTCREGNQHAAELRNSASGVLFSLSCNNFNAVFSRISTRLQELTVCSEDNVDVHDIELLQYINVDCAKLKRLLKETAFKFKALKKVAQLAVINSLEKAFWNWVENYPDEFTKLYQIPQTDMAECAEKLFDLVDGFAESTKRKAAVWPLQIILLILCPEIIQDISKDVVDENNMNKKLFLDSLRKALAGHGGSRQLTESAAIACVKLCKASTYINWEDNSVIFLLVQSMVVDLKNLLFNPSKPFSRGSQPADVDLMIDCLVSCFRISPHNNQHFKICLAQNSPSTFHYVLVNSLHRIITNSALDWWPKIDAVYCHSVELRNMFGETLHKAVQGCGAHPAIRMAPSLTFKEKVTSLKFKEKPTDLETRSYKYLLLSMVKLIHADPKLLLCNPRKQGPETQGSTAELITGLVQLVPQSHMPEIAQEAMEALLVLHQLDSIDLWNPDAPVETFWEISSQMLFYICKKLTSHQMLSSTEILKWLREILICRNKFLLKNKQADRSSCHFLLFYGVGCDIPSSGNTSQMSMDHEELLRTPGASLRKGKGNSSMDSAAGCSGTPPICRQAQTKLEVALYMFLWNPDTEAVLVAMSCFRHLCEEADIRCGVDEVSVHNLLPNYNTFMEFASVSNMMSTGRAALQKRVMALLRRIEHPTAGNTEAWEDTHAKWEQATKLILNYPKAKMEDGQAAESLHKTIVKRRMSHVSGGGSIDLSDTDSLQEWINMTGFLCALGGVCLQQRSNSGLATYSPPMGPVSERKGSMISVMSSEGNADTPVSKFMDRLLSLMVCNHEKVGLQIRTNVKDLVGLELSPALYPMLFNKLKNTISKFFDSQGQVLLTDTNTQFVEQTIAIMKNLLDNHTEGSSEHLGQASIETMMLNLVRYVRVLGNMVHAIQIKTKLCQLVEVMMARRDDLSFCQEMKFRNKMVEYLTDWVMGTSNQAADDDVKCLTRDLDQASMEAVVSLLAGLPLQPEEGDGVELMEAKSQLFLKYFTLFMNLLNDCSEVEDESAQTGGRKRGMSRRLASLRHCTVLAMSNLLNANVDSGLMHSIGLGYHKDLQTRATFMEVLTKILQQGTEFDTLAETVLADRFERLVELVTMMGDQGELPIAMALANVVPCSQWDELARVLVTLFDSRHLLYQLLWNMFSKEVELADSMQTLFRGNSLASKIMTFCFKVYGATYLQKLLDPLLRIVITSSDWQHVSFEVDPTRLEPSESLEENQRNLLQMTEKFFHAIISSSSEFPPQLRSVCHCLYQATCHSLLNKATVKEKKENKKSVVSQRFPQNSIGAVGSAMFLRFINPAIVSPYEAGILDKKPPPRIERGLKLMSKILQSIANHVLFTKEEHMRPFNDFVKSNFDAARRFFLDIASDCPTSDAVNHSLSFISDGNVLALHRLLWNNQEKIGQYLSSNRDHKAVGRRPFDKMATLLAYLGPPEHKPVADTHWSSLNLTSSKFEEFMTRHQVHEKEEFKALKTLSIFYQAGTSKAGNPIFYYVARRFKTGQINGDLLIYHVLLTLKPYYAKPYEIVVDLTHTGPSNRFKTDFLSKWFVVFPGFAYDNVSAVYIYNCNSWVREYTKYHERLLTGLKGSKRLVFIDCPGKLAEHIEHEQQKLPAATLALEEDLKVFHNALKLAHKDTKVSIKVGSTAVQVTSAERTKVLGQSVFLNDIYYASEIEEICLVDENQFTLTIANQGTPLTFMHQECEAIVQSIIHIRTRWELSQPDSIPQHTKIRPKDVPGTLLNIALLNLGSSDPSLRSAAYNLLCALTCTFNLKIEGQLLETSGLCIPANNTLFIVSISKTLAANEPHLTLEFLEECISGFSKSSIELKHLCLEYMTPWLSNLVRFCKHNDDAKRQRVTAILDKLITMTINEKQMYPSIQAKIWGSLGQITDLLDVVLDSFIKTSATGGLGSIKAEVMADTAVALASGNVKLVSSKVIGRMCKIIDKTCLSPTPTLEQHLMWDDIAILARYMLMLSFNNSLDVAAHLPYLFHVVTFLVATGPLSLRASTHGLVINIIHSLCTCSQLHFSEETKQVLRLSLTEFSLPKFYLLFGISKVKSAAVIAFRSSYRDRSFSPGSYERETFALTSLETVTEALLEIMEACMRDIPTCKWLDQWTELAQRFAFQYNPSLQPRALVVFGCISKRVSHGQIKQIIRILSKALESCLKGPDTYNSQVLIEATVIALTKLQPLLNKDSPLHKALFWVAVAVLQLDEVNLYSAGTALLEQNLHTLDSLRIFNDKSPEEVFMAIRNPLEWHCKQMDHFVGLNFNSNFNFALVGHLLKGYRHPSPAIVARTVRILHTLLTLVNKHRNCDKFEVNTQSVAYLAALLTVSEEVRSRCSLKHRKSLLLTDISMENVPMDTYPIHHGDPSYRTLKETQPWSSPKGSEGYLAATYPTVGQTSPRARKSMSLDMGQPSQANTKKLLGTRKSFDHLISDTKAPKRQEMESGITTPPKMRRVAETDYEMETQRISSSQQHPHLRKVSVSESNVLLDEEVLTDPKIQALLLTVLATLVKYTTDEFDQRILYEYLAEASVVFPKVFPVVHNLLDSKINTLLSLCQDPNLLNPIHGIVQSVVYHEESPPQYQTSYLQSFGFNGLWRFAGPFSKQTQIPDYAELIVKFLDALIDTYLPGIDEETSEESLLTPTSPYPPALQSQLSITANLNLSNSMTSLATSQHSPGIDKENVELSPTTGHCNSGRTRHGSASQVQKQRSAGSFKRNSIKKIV

Columns and labels:
[1] = molecular target: SPRED2 (Sprouty-related EVH1 domain-containing protein 2) (human (endogenous in HCC1937 and MCF7)) (UniProt Q7Z698); assay: co-IP; lysates (1 mg) of HCC1937 and MCF7 cells in Pierce IP lysis buffer, pre-cleared with Dynabeads protein G; anti-NF or anti-SPRED2 antibody 2 h at 4 °C, Dynabeads protein G overnight at 4 °C, four washes with lysis buffer; Western blot with anti-SPRED2 or anti-NF antibody
[2] = molecular target: Neurofibromin (human (endogenous in HCC1937 and MCF7)) (UniProt P21359); assay: as above

| binding [1] | binding [2] | Substance |
| --- | --- | --- |
| binds |  | Neurofibromin (from UniProt P21359 1-2839) |
|  | binds | SPRED2 (Sprouty-related EVH1 domain-containing protein 2) (from UniProt Q7Z698 1-418) |
